Data on two substances can be found in article PMC6874683, “Pyrrothiogatain acts as an inhibitor of GATA family proteins and inhibits Th2 cell differentiation in vitro” (Scientific Reports, 2019).

Amino acid sequences for entries named in this document (tags omitted).
UniProt P23771: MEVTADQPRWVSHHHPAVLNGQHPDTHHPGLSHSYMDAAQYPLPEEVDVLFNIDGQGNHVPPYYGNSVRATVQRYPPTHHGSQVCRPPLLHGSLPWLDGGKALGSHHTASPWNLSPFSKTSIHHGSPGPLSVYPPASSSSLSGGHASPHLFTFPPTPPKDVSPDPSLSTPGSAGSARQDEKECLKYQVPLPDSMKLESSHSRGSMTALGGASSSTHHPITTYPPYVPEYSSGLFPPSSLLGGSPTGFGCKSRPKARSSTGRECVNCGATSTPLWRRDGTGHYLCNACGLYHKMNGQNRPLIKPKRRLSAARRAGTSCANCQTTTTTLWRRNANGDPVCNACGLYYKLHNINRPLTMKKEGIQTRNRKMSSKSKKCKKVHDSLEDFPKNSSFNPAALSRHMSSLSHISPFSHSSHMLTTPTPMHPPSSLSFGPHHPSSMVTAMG
UniProt Q06945: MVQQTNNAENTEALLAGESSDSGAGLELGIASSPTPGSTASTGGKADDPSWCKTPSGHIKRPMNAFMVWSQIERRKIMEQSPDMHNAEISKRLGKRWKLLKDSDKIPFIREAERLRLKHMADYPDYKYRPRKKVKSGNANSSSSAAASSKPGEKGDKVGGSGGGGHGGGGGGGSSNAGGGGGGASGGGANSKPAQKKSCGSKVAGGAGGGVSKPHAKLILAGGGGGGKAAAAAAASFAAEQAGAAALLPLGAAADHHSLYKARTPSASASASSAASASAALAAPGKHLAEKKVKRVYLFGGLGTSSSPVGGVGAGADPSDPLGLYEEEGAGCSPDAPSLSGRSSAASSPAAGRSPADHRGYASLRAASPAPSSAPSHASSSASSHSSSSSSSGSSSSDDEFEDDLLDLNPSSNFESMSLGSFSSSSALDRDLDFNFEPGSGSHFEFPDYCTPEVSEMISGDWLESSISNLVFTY

No constants are given. Whether binding was seen depends on the method and setting. For some assays here: In cells and extracts the contact can be indirect. Some entries that bind do so weakly or less than the wild type.

Test [1] addresses FLAG-tagged recombinant full-length GATA3 (UniProt P23771). Description: co-IP; recombinant FLAG-GATA3 and AGIA-SOX4 (wheat cell-free) mixed with anti-FLAG M2 affinity agarose gel, 4 °C, 2 h, washed three times; immunoblot with anti-FLAG M2 and anti-AGIA-HRP; with pyrrothiogatain 0 to 100 µM (dose-dependent decrease). (In general: In western blotting, separated proteins are transferred to a membrane and probed.)

Test [2] shares this target. Description: AlphaScreen or HTRF; biotin-SOX4 and FLAG-tagged protein, both synthesized by the wheat cell-free system; luminescence signal; also with pyrrothiogatain 0 to 100 µM (dose-dependent decrease). Background: Alpha assays give light when donor and acceptor beads are brought close together.

As to AGIA-SOX4 (from UniProt Q06945 1-474), in test [1], the binding entry is “binds”.
On to “N-terminal biotinylated full-length SOX4 (from UniProt Q06945 1-474)”, for which, in test [2], the binding result is “binds”.
